From PubChem BioAssay AID540256 (National Center for Advancing Translational Sciences (NCATS), 2011)
Out of some 300,000 compounds screened, about 3,700 (1.2%) were called active. This list was built around the results that the source calls inconclusive (neither active nor inactive); the mix of calls is not that of the screen. Calls come from the whole dose curve; tested in HEK293 cells. Potencies of inconclusive entries are doubtful fits and often do not repeat.

Assay: qHTS for Inhibitors of binding or entry into cells for Lassa Virus; note: nearly all actives have a fitted effect of over 50% in size
Details: Lassa virus pseudotype entry inhibition, cell reporter; activity change, negative = inhibition: at 37.9 µM (top of the series) unless noted
% is set by controls: 0 for no effect and ±100 for the full control effect; potency is the fitted concentration of half-maximal effect.

| SMILES | Potency | activity change, negative = inhibition |
| --- | --- | --- |
| CCCCSc1nc(C)cc(SCC(=O)N/N=C/c2cccc(OC)c2O)n1 | inconclusive: 11.2 µM [inhibitor, partial curve, poor fit] | – |
| CCCc1cc(C(=O)Nc2ccc(Cl)cn2)cs1 | inconclusive: 7.94 µM [inhibitor, partial curve, poor fit] | – |
| Cc1nnsc1C(=O)N/N=C/c1ccc2ccccc2c1O | inconclusive: 3.55 µM [inhibitor, full curve] | – |
| COC(=O)c1sc(S(=O)(=O)Nc2ccc(Br)cc2)c(C(=O)OC)c1C | inconclusive: 1.58 µM [inhibitor, partial curve, poor fit] | – |
| Cc1nn(C)c2c1c(-c1ccccc1)cc(=O)n2C(C)C(=O)NCc1ccc(F)cc1 (stereo not given) | inconclusive: 35.5 µM [activator, single point] | – |
| Cc1cc(Cl)ccc1NC(=S)N1CCC(C(N)=O)(N2CCCCC2)CC1 | inconclusive: 7.94 µM [inhibitor, partial curve, poor fit] | – |
| CN(C)[C@@H]1C(=O)C(C(N)=O)=C(O)[C@@]2(O)C(=O)C3=C(O)c4c(O)ccc(Cl)c4[C@@](C)(O)C3C[C@@H]12 (stereo not given in full) | – | inactive: -1.75% |
| COC(=O)c1[nH]c2cc(C)ccc2c1NC(=O)CN1CCOCC1 | – | inactive: 24.6% [at 46.1 µM] |
| O=c1c(N2CCN(c3cccc(C(F)(F)F)c3)CC2)csc2ccc(Cl)cc12 | inconclusive: 6.31 µM [inhibitor, partial curve, poor fit] | – |
| C/[N+]([O-])=C\C1C(=O)CC(C)(C)CC1=O | inconclusive: 0.562 µM [inhibitor, full curve, poor fit] | – |
| COc1ccc(N(C)S(=O)(=O)c2cccc(C(=O)N3CCN(c4ccccc4)CC3)c2)cc1 | inconclusive: 31.6 µM [inhibitor, single point] | – |
| COc1ccc(-c2cn3nc(N4CCCC(C(=O)NCc5ccccc5Cl)C4)sc3n2)cc1 (stereo not given) | inconclusive: 3.55 µM [activator, single point] | – |
| CCOc1c(Cl)cc(CNC(C)(C)CC(C)(C)C)cc1OC | inconclusive: 32.6 µM [inhibitor, single point] | – |
| COc1ccc(OC)c(CCNC(=O)c2cnn(-c3ccccc3)c2C2CCN(C(=O)OC(C)(C)C)CC2)c1 | inconclusive: 7.94 µM [inhibitor, partial curve, poor fit] | – |
| CCCCCCCCSc1nnc(CSc2nc3nc(C)cc(C)n3n2)o1 | – | inactive: -21.2% |
| O=S(=O)(c1ccc(NC(=S)NC2CCCC2)cc1)N1CCCC1 | inconclusive: 10 µM [inhibitor, partial curve, poor fit] | – |
| Cc1nc(C(F)(F)F)ccc1C(=O)Nc1ccc2ccccc2n1 | – | inactive: 3.53% [at 46.1 µM] |
| CCOc1ccc(-c2nnc(SCC(=O)NCc3ccc(C)cc3)nc2-c2ccc(OCC)cc2)cc1 | inconclusive: 1.26 µM [inhibitor, partial curve, poor fit] | – |
| CCCSc1nc(C)c(CC(=O)O)c(=O)[nH]1 | – | inactive: -17.3% |
| CC(Sc1ccccc1)C(=O)N1CCN(S(=O)(=O)c2ccccc2)CC1 (stereo not given) | – | inactive: -2.38% |

| SMILES | Potency | activity change, negative = inhibition |
| --- | --- | --- |
| Cc1ccc(NC(=O)CC2S/C(=N/N=C/c3c[nH]c4ccccc34)NC2=O)cc1 (stereo not given) | inconclusive: 1 µM [inhibitor, full curve] | – |
| Cc1cccc(-n2ncc3c(NC4CCCC4)ncnc32)c1 | – | inactive: 11.8% [at 46.1 µM] |
| Nc1ccc(CCc2nc3ccccc3o2)cc1 | inconclusive: 29.1 µM [inhibitor, single point] | – |
| C=Cc1c(C)c2cc3[nH]c(cc4nc(cc5nc(cc1[nH]2)C(C)=C5CCC(=O)O)C(CCC(=O)O)=C4C)c(C)c3C=C | inconclusive: 4.61 µM [inhibitor, partial curve, poor fit] | – |
| COCCC(=O)N1CCC(Oc2ccc(C(=O)NCCc3cn[nH]c3)cc2)CC1 | inconclusive: 11.2 µM [activator, partial curve, poor fit] | – |
| CCOc1ccc(OCC)c(S(=O)(=O)NCCOC23CC4CC(CC(C4)C2)C3)c1 | inconclusive: 10 µM [inhibitor, partial curve] | – |
| CCOCc1cc(CN2CCN(c3cccc(Cl)c3)CC2)c(O)c2ncccc12 | inconclusive: 3.16 µM [inhibitor, single point] | – |
| CC(C)(C)C1CCc2c(sc3nc(SCC(=O)O)nc(N)c23)C1 (stereo not given) | inconclusive: 22.4 µM [inhibitor, single point] | – |
| CCN(Cc1ccccc1)Cc1c(O)ccc2c(=O)c(-c3ccccc3Cl)c(C(F)(F)F)oc12 | inconclusive: 14.1 µM [activator, partial curve, poor fit] | – |
| O=C(NCc1cccc(F)c1)c1cccc(NC(=O)c2nsc3ccccc23)c1 | inconclusive: 35.5 µM [inhibitor, single point] | – |
| COc1ccc(C(=O)/C=C/c2ccsc2)cc1CSCC(=O)O | – | inactive: -13.8% |
| CC1(C)Cc2nc3nc(SCC(=O)NCCc4ccccc4)n(-c4ccccc4)c(=O)c3cc2CO1 | – | inactive: -9.28% |
| Cc1cc(C)n2nc(C(=O)NCCc3ccccc3)nc2n1 | inconclusive: 12.6 µM [activator, single point] | – |
| CCOc1ccc(N(CC(=O)Nc2ccccc2F)S(=O)(=O)c2c(C)[nH]c(=O)[nH]c2=O)cc1 | inconclusive: 17.8 µM [activator, single point] | – |
| O=C(NNC(=O)c1cc(O)c(O)c(O)c1)NC1CCCCC1 | – | inactive: 9.25% |
| Cc1cccc(N2CCN(C(=O)CCn3c(=O)[nH]c4ccccc4c3=O)CC2)c1C | inconclusive: 29.1 µM [inhibitor, single point] | – |
| CCN1CCN(C(=O)COCc2cc(-c3ccc4c(c3)OCO4)on2)CC1 | inconclusive: 35.5 µM [activator, single point] | – |
| CCCCn1c(N)c(N(CCC(C)C)C(=O)CC2CCCC2)c(=O)[nH]c1=O | inconclusive: 2.82 µM [inhibitor, partial curve, poor fit] | – |
| CC(=O)c1ccc(N2CCN(S(=O)(=O)c3ccc4[nH]c5c(c4c3)CCCC5)CC2)cc1 | inconclusive: 14.1 µM [inhibitor, partial curve, poor fit] | – |
| Oc1ccc(/C=N/Nc2nc(N3CCCCCC3)nc(N3CCCCCC3)n2)c(O)c1 | inconclusive: 31.6 µM [inhibitor, partial curve, poor fit] | – |

8 of the compounds above, bar-delimited.
SMILES | Potency | activity change, negative = inhibition
Cc1ccc(NC(=O)CC2S/C(=N/N=C/c3c[nH]c4ccccc34)NC2=O)cc1 (stereo not given) | inconclusive: 1 µM [inhibitor, full curve] | –
Nc1ccc(CCc2nc3ccccc3o2)cc1 | inconclusive: 29.1 µM [inhibitor, single point] | –
CC(C)(C)C1CCc2c(sc3nc(SCC(=O)O)nc(N)c23)C1 (stereo not given) | inconclusive: 22.4 µM [inhibitor, single point] | –
CCN(Cc1ccccc1)Cc1c(O)ccc2c(=O)c(-c3ccccc3Cl)c(C(F)(F)F)oc12 | inconclusive: 14.1 µM [activator, partial curve, poor fit] | –
CCOc1ccc(N(CC(=O)Nc2ccccc2F)S(=O)(=O)c2c(C)[nH]c(=O)[nH]c2=O)cc1 | inconclusive: 17.8 µM [activator, single point] | –
O=C(NNC(=O)c1cc(O)c(O)c(O)c1)NC1CCCCC1 | – | inactive: 9.25%
CCCCn1c(N)c(N(CCC(C)C)C(=O)CC2CCCC2)c(=O)[nH]c1=O | inconclusive: 2.82 µM [inhibitor, partial curve, poor fit] | –
Oc1ccc(/C=N/Nc2nc(N3CCCCCC3)nc(N3CCCCCC3)n2)c(O)c1 | inconclusive: 31.6 µM [inhibitor, partial curve, poor fit] | –
